Results: patent US4701465A, “N-acylpyrrolidine derivative and synthesis and use thereof” (Suntory Limited, priority 1985, dated 1987)

Tested on: experimental amnesia caused in rats by scopolamine
Test: Preventive effect against experimental amnesia caused in rats by scopolamine (passive avoidance learning, intraperitoneal administration)
Format: in vivo, Wister male rats
Details: 1 mg/kg i.p. one hour before learning
Description: Several of the anti-prolyl endopeptidase compounds of the present invention were checked for their ability to prevent the inhibition of long-term memory fixation by scopolamine. Solutions of physiological saline that contained selected compounds of the present inventions in an amount of 1 mg/kg were administered intraperitoneally to Wister male rats (100-120 g). One hour after the administration, electric shocks were applied to the rats so that they would acquire passive avoidance learning. Immediately thereafter, scopolamine was administered intraperitoneally to each rat in an amount of 3 mg per kg of body weight.
The result of the test was assessed both 24 hours and 48 hours after the administration of scopolamine. The number of amnesic rats and of sound rats was counted for both the control group (rats which were not given the test compounds but to which scopolamine and physiological saline alone were administered intraperitoneally) and the treated group (rats to which both the test compound and scopolamine were administered).

Structure (SMILES) | Learning: Initial avoidance time | Learning: No. of avoidances during learning | Learning: Total learning time
COc1ccc(CCC(=O)N2CCCC2C=O)cc1 (stereo not drawn) [SUAM1050] | 2.6 s | 2.5 | 110.0 s
O=CC1CCCN1C(=O)Cc1ccc(Cl)cc1 (stereo not drawn) [SUAM1052] | 3.2 s | 2.7 | 110.0 s
O=CC1CCCN1C(=O)CCC(=O)c1ccccc1 (stereo not drawn) [SUAM1055] | 3.5 s | 1.7 | 110.0 s
O=CC1CCCN1C(=O)CC(c1ccccc1)c1ccccc1 (stereo not drawn) [SUAM1065] | 2.9 s | 2.0 | 110.0 s
COc1ccc(CCCC(=O)N2CCCC2C=O)cc1 (stereo not drawn) [SUAM1051] | 3.1 s | 2.0 | 110.0 s
COc1ccc(/C=C/C(=O)N2CCCC2C=O)cc1 (stereo not drawn) [SUAM1054] | 2.0 s | 1.9 | 110.0 s
CCC(C(=O)N1CCCC1C=O)c1ccccc1 (stereo not drawn) [SUAM1066] | 3.7 s | 1.5 | 110.0 s
O=CC1CCCN1C(=O)CCC(c1ccccc1)c1ccccc1 (stereo not drawn) [SUAM1090] | 3.4 s | 2.2 | 110.0 s
